Measured values from PMC11377751.
No constants are given. Whether binding was seen depends on the method and setting. In cells and extracts the contact can be indirect. These calls come from enrichment with a bait or labelling near it, and not all partners need be listed.

The chains behind the UniProt entries cited, without tags or fusion partners.
UniProt Q86X60: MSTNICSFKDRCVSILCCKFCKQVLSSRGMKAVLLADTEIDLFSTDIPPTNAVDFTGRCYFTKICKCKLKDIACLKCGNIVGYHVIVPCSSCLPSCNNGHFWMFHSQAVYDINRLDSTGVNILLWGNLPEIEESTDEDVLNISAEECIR
UniProt P15927: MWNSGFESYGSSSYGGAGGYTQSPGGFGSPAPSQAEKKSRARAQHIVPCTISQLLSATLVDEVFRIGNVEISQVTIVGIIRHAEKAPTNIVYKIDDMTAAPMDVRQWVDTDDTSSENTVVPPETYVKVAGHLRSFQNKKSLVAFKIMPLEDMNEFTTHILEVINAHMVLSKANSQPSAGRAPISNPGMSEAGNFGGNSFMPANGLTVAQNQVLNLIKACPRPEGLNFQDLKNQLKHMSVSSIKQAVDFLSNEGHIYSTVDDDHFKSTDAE
UniProt P27694: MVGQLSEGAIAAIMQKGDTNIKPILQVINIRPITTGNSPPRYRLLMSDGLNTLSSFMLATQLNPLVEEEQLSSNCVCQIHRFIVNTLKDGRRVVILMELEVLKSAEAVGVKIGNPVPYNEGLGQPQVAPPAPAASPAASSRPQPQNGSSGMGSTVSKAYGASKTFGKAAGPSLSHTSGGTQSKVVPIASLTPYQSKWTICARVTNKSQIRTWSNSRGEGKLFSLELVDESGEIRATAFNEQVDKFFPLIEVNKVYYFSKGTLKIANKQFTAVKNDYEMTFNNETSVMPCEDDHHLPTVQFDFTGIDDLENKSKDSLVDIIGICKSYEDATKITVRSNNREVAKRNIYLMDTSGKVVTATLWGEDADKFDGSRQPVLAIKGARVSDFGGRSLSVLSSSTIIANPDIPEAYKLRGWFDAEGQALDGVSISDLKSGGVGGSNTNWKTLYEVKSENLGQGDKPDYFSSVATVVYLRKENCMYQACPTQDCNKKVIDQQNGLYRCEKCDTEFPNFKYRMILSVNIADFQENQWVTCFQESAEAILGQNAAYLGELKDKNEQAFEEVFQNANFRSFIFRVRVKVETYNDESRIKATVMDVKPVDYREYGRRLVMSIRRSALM

Biological target: FLAG-FAM72B (human) (UniProt Q86X60)
Experiment: affinity purification with mass spectrometry; FLAG affinity purification from extracts of cells expressing FLAG-FAM72B; immunocomplexes eluted with FLAG peptide; two replicas with a control pulldown each

Substance	binding
RPA2 (from UniProt P15927 1-270)	binds
RPA1 (from UniProt P27694 1-616)	binds
